The other results are listed elsewhere or left out. The main result of the screen is listed elsewhere. These columns were measured beside it and carry no call. Most of these compounds were active or inconclusive in the main read-out, so they are no random draw. The note in brackets gives the kind of curve behind each potency; many fits are weak.
Assay: qHTS Assay for Lipid Storage Modulators in Drosophila S3 Cells;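 on cell number change: cells counted by Cell Tracker Red CMTPX staining in the red channel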
Conditions: BODIPY lipid droplet fluorescence, 18-24 h; for cell number change: measured here: cell count max response, cells fed with added oleic acid
Outline: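 Drosophila S3 cells got compounds at several concentrations plus oleic acid (400 uM solution). Laser-scanning cytometry with 488 nm excitation read lipid droplets at 500-530 nm and cells at 575-640 nm. Percent activity was relative to 20 uM Triacsin C.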

[1] = measured here: lipid fluorescence (Fed channel) AC50, cells fed with added oleic acid
[2] = measured here: cell number channel AC50, cells fed with added oleic acid

O=C(Nc1ccc(-c2nnc(-c3ccccc3)o2)cc1)C(F)(F)F
cell number change: -24.7% | AC50 [1]: 0.259 µM [falling, partial curve, poor fit]

COc1ccccc1-c1noc(CCC(=O)Nc2cccc(C(F)(F)F)c2)n1
cell number change: 2.8% | AC50 [1]: 1.03 µM [rising, partial curve]

Cc1ccc2nc(C(F)(F)F)c(C#N)c(N)c2c1
cell number change: -21.9% | AC50 [1]: 1.46 µM [rising, partial curve, poor fit]

COc1ccc2c(c1O)Cc1ccccc1C2=O
cell number change: -13.8% | AC50 [1]: 6.51 µM [falling, single point]

CCc1ccc(NC(=O)C(=O)NCCN2CCN(S(=O)(=O)c3ccccc3)CC2)cc1
cell number change: -6.41%

COc1ccc(OCC(O)CNCc2ccco2)cc1 (stereo not given)
cell number change: -2.02% | AC50 [1]: 0.00517 µM [falling, full curve, poor fit]

CCOC(=O)CSC1=C(C#N)C(c2ccc(OC)cc2)C2=C(CC(C)(C)CC2=O)N1 (stereo not given)
cell number change: -26.2%

CCOC(=O)c1c(CS(=O)(=O)c2ccccc2)n(C)c2cc(Br)c(O)c(CN(C)C)c12
cell number change: -9.79% | AC50 [1]: 1.84 µM [falling, full curve, poor fit]

COc1ccc(CC(=O)Nc2ccc(-c3noc(-c4cc(OC)c(OC)c(OC)c4)n3)cc2)cc1
cell number change: -67.9% | AC50 [2]: 2.91 µM [falling, full curve] | AC50 [1]: 4.11 µM [falling, full curve]

COc1ccc(OC)c(N=C(N)N=C(N)N)c1
cell number change: 1.23% | AC50 [2]: 0.092 µM [falling, full curve, poor fit] | AC50 [1]: 18.4 µM [falling, partial curve]

COCCNC(=O)[C@H](C)[C@H]1C[C@]1(C)[C@H](NC(=O)OCc1ccccc1)c1ccccc1
cell number change: -1.14% | AC50 [1]: 20.6 µM [rising, single point]

CN(C)S(=O)(=O)c1ccc(Cl)c(NC(=O)COC(=O)C2CSC3(C)CCC(=O)N23)c1 (stereo not given)
cell number change: -18.5% | AC50 [2]: 6.51 µM [rising, partial curve, poor fit]

COc1ccc(CN2C(=O)c3ccccc3C2=O)cc1
cell number change: 13.2% | AC50 [1]: 29.1 µM [rising, single point]

CCOC(=O)c1c(C)[nH]c(C(=O)COC(=O)c2ccc(N3CCCC3=O)cc2)c1C
cell number change: 7.79% | AC50 [1]: 0.82 µM [rising, full curve, poor fit]

Cc1cccc(C(=O)NNC(=O)CCn2nnc3ccccc32)c1
cell number change: 0.213% | AC50 [1]: 5.8 µM [falling, single point]

COc1ccc(C(=O)NC(=S)NCCc2ccccc2)cc1
AC50 [2]: 6.51 µM [falling, single point] | AC50 [1]: 6.51 µM [falling, single point]

Cn1c(NC(=S)Nc2ccccc2)nc2ccccc21
cell number change: -18.9% | AC50 [1]: 2.31 µM [falling, full curve]

Cc1cc(=O)oc2c3c(cc(OCC(=O)NCc4ccncc4)c12)OC(C)(C)CC3
cell number change: 24.6% | AC50 [2]: 0.92 µM [rising, full curve, poor fit] | AC50 [1]: 29.1 µM [rising, single point]

CCC1=NN2C(=N)/C(=C/c3ccc(OS(=O)(=O)c4ccccc4)cc3)C(=O)N=C2S1
cell number change: -3.44% | AC50 [1]: 29.1 µM [rising, single point]

CC(C)c1ccc(NC(=O)[C@H](Cc2c[nH]c3ccccc23)NC(=O)[C@@H]2Cc3ccccc3CN2)cc1
cell number change: -11.9% | AC50 [1]: 0.103 µM [falling, full curve, poor fit]

Cn1cccc1/C=C1\SC(=S)N(NC(=O)c2cccc(Cl)c2)C1=O
cell number change: 34.3% | AC50 [2]: 8.2 µM [rising, partial curve] | AC50 [1]: 6.51 µM [rising, partial curve, poor fit]

Cc1cccc(Nc2nc(-c3ccc(O)c(O)c3)cs2)n1
cell number change: -64.6% | AC50 [2]: 23.1 µM [falling, single point] | AC50 [1]: 29.1 µM [falling, single point]

COc1cc2nc(CN3CCN(S(=O)(=O)c4ccccc4)CC3)[nH]c(=O)c2cc1OC
cell number change: -1.49%

COc1ccc(NC(=O)C2CC(=O)N(c3ccccc3Cl)C2)c(OC)c1 (stereo not given)
cell number change: 6.84%

Cc1ccc(CSc2nc3ccncc3n2CC(=O)Nc2cc(C)cc(C)c2)cc1
cell number change: -40.5% | AC50 [2]: 16.4 µM [falling, single point] | AC50 [1]: 1.84 µM [rising, partial curve]

COc1ccc(-c2c(C#N)c(SCC(N)=O)nc3c2CCCC3)cc1
cell number change: 22.6% | AC50 [2]: 7.31 µM [rising, partial curve, poor fit] | AC50 [1]: 3.66 µM [rising, full curve, poor fit]

CCOc1ccc(OCc2ccc(C(=O)N3N=C(C(F)F)CC3(O)C(F)F)o2)cc1 (stereo not given)
cell number change: -50.4% | AC50 [1]: 0.13 µM [falling, full curve, poor fit]

CCOC(=O)N1CCC(NC(=O)CN2C(=O)CSc3nc(C)cc(C)c32)CC1
cell number change: 15.5% | AC50 [1]: 0.82 µM [rising, full curve, poor fit]

Cc1ccc(S(=O)(=O)CCC(=O)OCC(=O)c2c(N)n(CC(C)C)c(=O)n(C)c2=O)cc1
cell number change: -13.5%

CCOc1cc(N2CCOCC2)c(OCC)cc1NC(=O)CSc1ncn[nH]1
cell number change: 25.6% | AC50 [1]: 23.1 µM [rising, single point]

Cc1ccc(Cl)cc1N1CCN(C(=O)CN2C(=O)c3cccc4cccc2c34)CC1
AC50 [2]: 2.59 µM [rising, partial curve] | AC50 [1]: 4.11 µM [rising, partial curve]

Cc1ccc(-n2nc(-c3ccc(OC(F)(F)F)cc3)cc2N)cc1C
cell number change: 11.6%

CCOC(=O)c1cn(Cc2cccc(Cl)c2)nn1
cell number change: 0.115% | AC50 [1]: 9.2 µM [rising, partial curve]

Cc1cc(Cl)ccc1OC(C)c1nnc(N)s1 (stereo not given)
AC50 [2]: 0.651 µM [rising, single point] | AC50 [1]: 0.651 µM [rising, single point]

CC(C)=C1SC(N2CCN(c3ccc(Cl)cc3)CC2)=NC1=O
cell number change: 18.6% | AC50 [2]: 1.84 µM [rising, partial curve, poor fit] | AC50 [1]: 1.84 µM [rising, partial curve, poor fit]

NS(=O)(=O)c1ccc(CNC(=O)c2cc(-c3cccnc3)nc3ccc(Br)cc23)cc1
cell number change: -56.2% | AC50 [2]: 28.2 µM [falling, single point]

COCC(=O)N1CCC(Oc2ccc(C(=O)N3C[C@H]4CC[C@H]3C4)cc2)CC1
cell number change: -26.7%

O=C(C[n+]1cc(-c2ccc(F)cc2)n2c1CCC2)OCc1ccccc1
cell number change: 14.9% | AC50 [1]: 2.91 µM [falling, full curve]

CCCN1C(=O)/C(=C2\SC(N3CCCCC3)=NC2=O)c2ccccc21
cell number change: -94.4% | AC50 [2]: 20.6 µM [falling, partial curve]

Cc1cc(C)c(S(=O)(=O)ON2C(=O)c3ccccc3C2=O)cc1C
cell number change: -28.3% | AC50 [1]: 9.2 µM [falling, partial curve]

CN(C)c1nc(OCCNC(=O)COc2ccc(Cl)cc2Cl)nc(N2CCOCC2)n1
cell number change: -14.5% | AC50 [1]: 16.4 µM [rising, single point]

O=C(NCc1ccco1)c1cc2n(n1)C(C(F)(F)F)CC(c1ccc(Br)cc1)N2 (stereo not given)
cell number change: -44.9% | AC50 [2]: 2.06 µM [falling, partial curve, poor fit]

Cc1c(/C=C2\SC(=Nc3cccc(C(=O)O)c3)NC2=O)c2ccccc2n1C
cell number change: -3.8% | AC50 [1]: 29.1 µM [rising, single point]

COc1ccc2cc(S(=O)(=O)Nc3ccccn3)ccc2c1
cell number change: 8.55%

COc1ccc(CN(C(=O)c2cnccn2)C(C(=O)Nc2ccc(F)cc2)c2ccccc2)cc1 (stereo not given)
cell number change: -21.4% | AC50 [1]: 14.6 µM [falling, single point]

CCN(CC)C(=O)CN1C(=O)C2(OCC(C)(c3ccccc3)CO2)c2ccccc21 (stereo not given)
cell number change: -3.17%

Cc1cc(=O)n2nc(N3CCCC(C(=O)N4CCOCC4)C3)sc2n1 (stereo not given)
cell number change: 2.75%

COc1ccc([C@H]2CC(=O)C=C(c3ccc(OC)c(F)c3)C2)cc1
AC50 [1]: 1.16 µM [falling, full curve]

FC(F)(F)c1ccccc1CNCc1ccncc1
cell number change: -8.39%

Cc1ccc(C)c(NC(=O)COC(=O)CSc2ccccc2)c1
cell number change: -3.3% | AC50 [1]: 0.517 µM [rising, single point]

CN(C)CCCCCNCCCNC(=O)/C=N\O
cell number change: -7.5% | AC50 [1]: 0.058 µM [falling, full curve]

COc1ccc(Nc2nc(C)c3ccccc3n2)cc1
cell number change: -3.97% | AC50 [1]: 6.51 µM [rising, single point]

O=C(O)COCC(=O)N1CCN(C(c2ccccc2)c2ccccc2)CC1
cell number change: -21.3%

CC(C)(C)C(=O)OCc1cn(-c2ccc(Cl)cc2)nn1
cell number change: 79% | AC50 [2]: 29.1 µM [rising, single point]

COc1ccc(N(C(=O)COc2ccccc2)C2C=CS(=O)(=O)C2)cc1 (stereo not given)
AC50 [2]: 0.00461 µM [falling, full curve, poor fit] | AC50 [1]: 0.00461 µM [falling, full curve, poor fit]

COc1ccccc1NS(=O)(=O)c1cc(NC(=O)CNC(=O)c2ccccc2)ccc1C
cell number change: -50% | AC50 [2]: 32.6 µM [falling, single point] | AC50 [1]: 1.84 µM [rising, full curve]

CCN(CC)S(=O)(=O)c1ccc(OC)c(NC(=O)CSc2cc(C)ccc2C)c1
cell number change: 29.8% | AC50 [1]: 2.31 µM [rising, partial curve]

CCOC(=O)c1ccccc1NC(=O)c1cn(-c2ccc(OC)cc2)c(=O)c2ccccc12
cell number change: 10% | AC50 [1]: 0.146 µM [rising, full curve, poor fit]

N/C(=N\OC(=O)c1ccc2c(c1)OCO2)c1ccncc1
cell number change: 32.5% | AC50 [2]: 4.11 µM [rising, partial curve, poor fit] | AC50 [1]: 2.31 µM [rising, partial curve, poor fit]

Reference: PubChem BioAssay AID2685 (National Center for Advancing Translational Sciences (NCATS), 2010)
